Data from PMC12752606, “METTL10‐Mediated PIAS3 Methylation Links Purine Metabolism to Gastric Cancer Progression” (Advanced Science, 2025).
Results are given in words; binding and its absence hold for the method and conditions named. In cells and extracts the contact can be indirect. Some binding calls cover weakened binding; strength is not graded here. For part of these data: Where a sequence is shown, tags or fusion partners need not be part of it. Each block holds one binder with its values, some of them ahead of it.

Amino acid sequences for entries named in this document (tags omitted). A change or cut given only in a name is not applied to a line headed by its entry. Chains listed by the source or under a name are the forms on record and can include a tag or linker. Residues count along the entry.
Flag-tagged METTL10 N-terminal fragment (ΔC: aa 1-197) (Q5JPI9, residues 1-197): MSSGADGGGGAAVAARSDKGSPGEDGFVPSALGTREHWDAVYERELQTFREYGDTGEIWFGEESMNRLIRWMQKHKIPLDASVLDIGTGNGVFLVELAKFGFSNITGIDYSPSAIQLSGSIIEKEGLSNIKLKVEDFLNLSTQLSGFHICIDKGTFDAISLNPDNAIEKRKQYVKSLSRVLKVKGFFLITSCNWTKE
Flag-METTL10 (methyltransferase-like 10) (Q5JPI9, form named): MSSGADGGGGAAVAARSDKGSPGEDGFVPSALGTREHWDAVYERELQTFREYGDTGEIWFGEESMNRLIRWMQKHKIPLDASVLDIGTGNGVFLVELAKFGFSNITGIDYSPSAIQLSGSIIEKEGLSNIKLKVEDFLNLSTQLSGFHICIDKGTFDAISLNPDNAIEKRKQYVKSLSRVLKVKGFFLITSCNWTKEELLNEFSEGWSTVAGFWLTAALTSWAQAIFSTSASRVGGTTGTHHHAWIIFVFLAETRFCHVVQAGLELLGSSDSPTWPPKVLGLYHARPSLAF

Assays:
[1] = target: METTL10, endogenous (human (endogenous in MKN45 and AGS)) (UniProt Q5JPI9); assay: co-IP; endogenous proteins in MKN45 and AGS lysates; antibody on Dynabeads Protein G, 4 °C overnight; lysis buffer 20 mM Tris-HCl pH 7.5, 150 mM NaCl, 1% Triton X-100
[2] = target: Flag-tagged METTL10 N-terminal fragment (ΔC: aa 1-197) (UniProt Q5JPI9); assay: co-IP; domain mapping with Flag-tagged METTL10 fragments and PIAS3 domain constructs (Figure S3b,c); cells and antibodies not shown
[3] = target: Flag-METTL10 (methyltransferase-like 10) (UniProt Q5JPI9); assay: co-IP; HEK293T transfected with HA-PIAS3 and Flag-METTL10; immunoprecipitation and immunoblotting

- binding [1]: binds
B1: PIAS3, endogenous (enzyme, UniProt Q9Y6X2 1-628)
chain: MAELGELKHMVMSFRVSELQVLLGFAGRNKSGRKHELLAKALHLLKSSCAPSVQMKIKELYRRRFPRKTLGPSDLSLLSLPPGTSPVGSPGPLAPIPPTLLAPGTLLGPKREVDMHPPLPQPVHPDVTMKPLPFYEVYGELIRPTTLASTSSQRFEEAHFTFALTPQQVQQILTSREVLPGAKCDYTIQVQLRFCLCETSCPQEDYFPPNLFVKVNGKLCPLPGYLPPTKNGAEPKRPSRPINITPLARLSATVPNTIVVNWSSEFGRNYSLSVYLVRQLTAGTLLQKLRAKGIRNPDHSRALIKEKLTADPDSEVATTSLRVSLMCPLGKMRLTVPCRALTCAHLQSFDAALYLQMNEKKPTWTCPVCDKKAPYESLIIDGLFMEILSSCSDCDEIQFMEDGSWCPMKPKKEASEVCPPPGYGLDGLQYSPVQGGDPSENKKKVEVIDLTIESSSDEEDLPPTKKHCSVTSAAIPALPGSKGVLTSGHQPSSVLRSPAMGTLGGDFLSSLPLHEYPPAFPLGADIQGLDLFSFLQTESQHYGPSVITSLDEQDALGHFFQYRGTPSHFLGPLAPTLGSSHCSATPAPPPGRVSSIVAPGGALREGHGGPLPSGPSLTGCRSDIISLD

- binding [2]: binds
- binding [3]: binds
B2: HA-PIAS3 (protein inhibitor of activated STAT3) (enzyme, UniProt Q9Y6X2 1-628)
chain: B1 chain
